# Measurements reported in PubChem BioAssay AID1159578 (Peter MacCallum Cancer Centre, 2015).
# Screen: 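siRNA pools altering how lymphatic endothelial cells close a scratch wound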 (primary screen)
# Cell system: human lymphatic endothelial cells
# Reagents: siRNA pool against human genes, 40 nM
# Timing: 48 h after transfection
# Detection: 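Cells stained with dye and imaged after a scratch; covered wound area and nuclei counted, duplicates averaged, migration set against mock wells and turned into a robust z-score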
# Scale: migration robust z-score: higher = faster migration into the scratch; migration relative to mock: higher = more scratch area covered than mock; nuclei per well: higher = more cells in the well
# Active means: 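Migration changed when robust z exceeds 2 or falls below -2 and mean nuclei number is at least 3300; otherwise not called changed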
# Meaning of the calls: active = migration changed; inactive = no migration change, or too few cells
# In all, the deposit lists about 18,000 reagents; this is an unselected part. About 1,030 of them (5.7%) count as active. 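Inactive calls also include pools with fewer than 3300 nuclei, whose migration was not assessed.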 The raw values are shown without normalisation.
gene knocked down,migration robust z-score,migration class with cell-count check,migration relative to mock,"nuclei per well, duplicate mean",outcome
SLC25A26,-1.31,migration z between -2 and 2; enough cells,0.54,5630,inactive
SF3B5,-0.57,migration z between -2 and 2; enough cells,0.74,3373,inactive
BRF1,1.42,migration z between -2 and 2; enough cells,1.08,5336,inactive
NDC80,-0.74,migration z between -2 and 2; enough cells,0.69,5548,inactive
DNAJC28,2.08,migration z above 2; enough cells,1.42,5190,active
BAGE2,-1.19,migration z between -2 and 2; enough cells,0.58,5823,inactive
DAZ2,0.52,migration z between -2 and 2; enough cells,0.9,5463,inactive
FEZ1,-0.52,migration z between -2 and 2; enough cells,0.75,5838,inactive
BLCAP,0.28,migration z between -2 and 2; enough cells,0.96,5126,inactive
XKR6,0.9,migration z between -2 and 2; enough cells,1.13,5310,inactive
HOXD4,0.26,migration z between -2 and 2; enough cells,0.86,6028,inactive
DNASE1L1,0.73,migration z between -2 and 2; enough cells,0.94,6250,inactive
SULT1B1,-0.78,migration z between -2 and 2; enough cells,0.66,4452,inactive
UBE2D1,1.5,migration z between -2 and 2; enough cells,1.09,4827,inactive
LRP3,-1.71,migration z between -2 and 2; enough cells,0.48,5660,inactive
CCDC24,-0.48,migration z between -2 and 2; enough cells,0.76,6586,inactive
VPS37B,-0.06,migration z between -2 and 2; enough cells,0.87,5198,inactive
MAN1A1,1.01,migration z between -2 and 2; enough cells,1,6402,inactive
APOO,0.75,migration z between -2 and 2; enough cells,1.09,4197,inactive
PABPC4,-3.32,migration z below -2; enough cells,0.02,4164,active
DPP7,-0.54,migration z between -2 and 2; enough cells,0.7,7017,inactive
CENPS,-0.9,migration z between -2 and 2; enough cells,0.66,6164,inactive
VTCN1,0.38,migration z between -2 and 2; enough cells,0.99,5444,inactive
C1orf174,0.61,migration z between -2 and 2; enough cells,1.04,5418,inactive
CORO6,-0.98,migration z between -2 and 2; enough cells,0.63,5644,inactive
NHERF1,1.1,migration z between -2 and 2; enough cells,1.17,5952,inactive
ABCC9,-0.44,migration z between -2 and 2; enough cells,0.72,4630,inactive
CLEC18C,-1.25,migration z between -2 and 2; enough cells,0.56,6328,inactive
SPATC1,-0.3,migration z between -2 and 2; enough cells,0.81,5950,inactive
VIL1,-0.71,migration z between -2 and 2; enough cells,0.7,5638,inactive
LRRC3B,0.52,migration z between -2 and 2; enough cells,1.02,6991,inactive
ADHFE1,0.73,migration z between -2 and 2; enough cells,0.94,5466,inactive
FSCB,0.36,migration z between -2 and 2; enough cells,0.98,3453,inactive
GNG12,0.09,migration z between -2 and 2; enough cells,0.92,5971,inactive
IFT140,0.22,migration z between -2 and 2; enough cells,0.94,6450,inactive
ZBTB10,0.5,migration z between -2 and 2; enough cells,1.02,5252,inactive
TMEM184B,-1.12,migration z between -2 and 2; enough cells,0.6,5886,inactive
ERAL1,-0.52,migration z between -2 and 2; enough cells,0.7,5201,inactive
FRS3,-0.9,migration z between -2 and 2; enough cells,0.65,7306,inactive
ACBD6,-0.61,migration z between -2 and 2; enough cells,0.73,6026,inactive
ANKRD29,-0.71,migration z between -2 and 2; enough cells,0.7,6872,inactive
EHD2,-0.22,migration z between -2 and 2; enough cells,0.82,6264,inactive
MED20,1.1,migration z between -2 and 2; enough cells,1.17,5040,inactive
RBFOX2,-0.7,migration z between -2 and 2; enough cells,0.7,3918,inactive
S100PBP,1.97,migration z between -2 and 2; enough cells,1.4,6716,inactive
SH3D19,-0.92,migration z between -2 and 2; enough cells,0.64,5028,inactive
LIN52,1.19,migration z between -2 and 2; enough cells,1.19,4146,inactive
EBF2,-1.23,migration z between -2 and 2; enough cells,0.56,5390,inactive
NEU4,-0.18,migration z between -2 and 2; enough cells,0.77,5836,inactive
UPP1,0.26,migration z between -2 and 2; enough cells,0.86,6457,inactive
CHRAC1,0,migration z between -2 and 2; enough cells,0.8,4505,inactive
GPAT4,0.68,migration z between -2 and 2; enough cells,0.94,5004,inactive
STPG2,1.12,migration z between -2 and 2; enough cells,1.18,6064,inactive
ZNF391,0.44,migration z between -2 and 2; enough cells,0.99,6450,inactive
EPHA1,-0.05,migration z between -2 and 2; enough cells,0.8,3546,inactive
BET1L,-4.14,under 3300 nuclei; migration not judged,-0.19,2124,inactive
TRNT1,0.36,migration z between -2 and 2; enough cells,0.88,4626,inactive

Part of the list above, reformatted.
HOXD4
- migration robust z-score: 0.26
- migration class with cell-count check: migration z between -2 and 2; enough cells
- migration relative to mock: 0.86
- nuclei per well, duplicate mean: 6028
- outcome: inactive

DNASE1L1
- migration robust z-score: 0.73
- migration class with cell-count check: migration z between -2 and 2; enough cells
- migration relative to mock: 0.94
- nuclei per well, duplicate mean: 6250
- outcome: inactive

SULT1B1
- migration robust z-score: -0.78
- migration class with cell-count check: migration z between -2 and 2; enough cells
- migration relative to mock: 0.66
- nuclei per well, duplicate mean: 4452
- outcome: inactive

UBE2D1
- migration robust z-score: 1.5
- migration class with cell-count check: migration z between -2 and 2; enough cells
- migration relative to mock: 1.09
- nuclei per well, duplicate mean: 4827
- outcome: inactive

LRP3
- migration robust z-score: -1.71
- migration class with cell-count check: migration z between -2 and 2; enough cells
- migration relative to mock: 0.48
- nuclei per well, duplicate mean: 5660
- outcome: inactive

CCDC24
- migration robust z-score: -0.48
- migration class with cell-count check: migration z between -2 and 2; enough cells
- migration relative to mock: 0.76
- nuclei per well, duplicate mean: 6586
- outcome: inactive

VPS37B
- migration robust z-score: -0.06
- migration class with cell-count check: migration z between -2 and 2; enough cells
- migration relative to mock: 0.87
- nuclei per well, duplicate mean: 5198
- outcome: inactive

MAN1A1
- migration robust z-score: 1.01
- migration class with cell-count check: migration z between -2 and 2; enough cells
- migration relative to mock: 1
- nuclei per well, duplicate mean: 6402
- outcome: inactive

APOO
- migration robust z-score: 0.75
- migration class with cell-count check: migration z between -2 and 2; enough cells
- migration relative to mock: 1.09
- nuclei per well, duplicate mean: 4197
- outcome: inactive
